In all, about 360,000 compounds went through this assay and about 7,500 (2.1%) were called active. This list was built around the results that the source calls inconclusive (neither active nor inactive); the mix of calls is not that of the screen. Calls follow the shape of the dose curve; as a rule, active = well fitted inhibition curve with a large enough effect; inconclusive = small, poorly fitted or top-dose-only effect, or effect the other way; inactive = flat fitted curve, though single readings scatter. Potencies beside an inconclusive call are fits to weak or partial responses and may not hold up.
Assay: Nrf2 qHTS screen for inhibitors; also: nearly all actives have a fitted effect of over 60% in size
Details: A549 ARE-Fluc reporter, luciferase luminescence, 18-24 h; activity change, negative = inhibition: at 46 µM (top of the series)
How it was run: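 Cells were seeded and rested 2 h, then exposed to compounds for 18-24 h. CellTiter-Fluor was read first as a viability measure. BugLite was added 15 min before the final luminescent read of ARE-luciferase activity in A549 cells.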
% is scaled to controls: 0 for no effect and ±100 for the full control effect; potency is read from the fitted curve at half-maximal effect.

SMILES | activity change, negative = inhibition | Potency
N#Cc1nc(-c2ccco2)oc1NCc1ccc(F)cc1 | inactive: -20% | 
COc1ccc(-c2noc(CC(=O)N(C)c3cc(Cl)c(OC)cc3OC)n2)cc1 |  | inconclusive: 23.1 µM [falling, partial curve]
Cc1ccc(C(=O)CCC(=O)NC2=NCCS2)cc1 |  | inconclusive: 20.6 µM [activator, single point]
COc1ccc2nc(NCCCNC(=O)c3cc(OC)c(OC)c(OC)c3)c(C#N)cc2c1 | inactive: -25.6% | 
O=c1c2sc3nc(N4CCOCC4)c4c(c3c2ncn1C(c1ccccc1)c1ccccc1)CCCC4 | inactive: 11% | 
Cc1c(C(=O)N2CCN(c3ncccn3)CC2)oc2c(Cl)cccc12 | inactive: -26.5% | 
CCn1c2ccccc2c2cc(CNCc3ccc(OC)cc3OC)ccc21 | inactive: -5.3% | 
FC(F)(F)c1cccc(-c2nc(-c3ccncc3)no2)c1 |  | inconclusive: 3.66 µM [activator, full curve]
Clc1ccccc1/C=N/NC1=Nc2cccc3cccc1c23 |  | inconclusive: 1.46 µM [activator, partial curve]
O=C(CSc1nnc2ccc3ccccc3n12)N1CCOCC1 |  | inconclusive: 23.1 µM [activator, partial curve, poor fit]
Cc1ccc(N/C=C(\C2OC(=O)c3ccccc32)[N+](=O)[O-])c(C)c1 (stereo not drawn) |  | inconclusive: 29.1 µM [falling, single point]
COc1ccc(CNC(=O)CCc2c(C)nc3c4cccnc4nn3c2C)cc1 |  | inconclusive: 2.31 µM [falling, full curve]
Cc1ccc(-c2nc3ccccc3o2)cc1NC(=O)c1ccc2c(c1)OCO2 |  | inconclusive: 20.6 µM [activator, single point]
C=CCC[C@@H](Cc1ccc(F)cc1)C(=O)OC[C@@H](NC(=O)[C@@H](CC=C)CC(=O)N(CCO)Cc1ccccc1)c1ccccc1 |  | active: 23.1 µM
NC(=O)CSCc1nc2ccccc2s1 |  | inconclusive: 20.6 µM [activator, partial curve, poor fit]
COc1cc(OC)cc(C(=O)N[C@H](C(=O)OCC(=O)Nc2ccc(C(C)C)cc2)C(C)C)c1 |  | inconclusive: 20.6 µM [activator, partial curve, poor fit]
O=C(N/N=C/C(Br)=C/c1ccccc1)c1cnccn1 |  | inconclusive: 7.31 µM [activator, partial curve]
CCCCOC(=O)c1ccc(NC(=S)NC(=O)c2c(Cl)cnn2C)cc1 |  | inconclusive: 7.31 µM [activator, partial curve]
COc1ccccc1C(=O)NCCN=C1NS(=O)(=O)c2ccccc21 |  | inconclusive: 16.4 µM [falling, single point]
CCOC(=O)c1sc2ncnc(N3CCN(C(=O)OCC)CC3)c2c1C |  | inconclusive: 29.1 µM [falling, single point]
O=S(=O)(CS(=O)(=O)c1ccccc1)c1ccccc1 | inactive: -0.476% | 
O=C(NCc1ccccc1)C1=C[C@@H](C2CCCCC2)C[C@@H](OCc2ccc(CO)cc2)O1 |  | inconclusive: 10.3 µM [falling, partial curve, poor fit]

SMILES | activity change, negative = inhibition | Potency
COc1cc(CCNC(=O)c2ccccc2NC(=O)C2=C(C)OCCS2)cc(OC)c1OC |  | inconclusive: 9.2 µM [falling, partial curve]
O=c1[nH]c2cc([N+](=O)[O-])c(NCCO)c([N+](=O)[O-])c2[nH]1 | inactive: -13.3% | 
Cc1cc2c(=Cc3ccc(N(C)C)cc3)c3ccccc3n2[n+]1C |  | active: 2.59 µM
COc1ccccc1-c1c(C)[nH]n2c(=O)c(Cc3ccccc3)c(C)nc12 | inactive: -22% | 
CC(C)(C)c1ccc(NC(=O)N2CCCN(c3c(Cl)cncc3Cl)CC2)cc1 |  | inconclusive: 16.4 µM [activator, partial curve, poor fit]
C=CCNC(=S)N/N=C/c1ccc(C)c([N+](=O)[O-])c1 |  | inconclusive: 14.6 µM [falling, partial curve]
COc1ccc(N(CC(=O)Nc2cc(Cl)ccc2OC)S(=O)(=O)c2c(C)noc2C)cc1 | inactive: -29.1% | 
CCOc1ccc(N(CC(=O)Nc2ccccc2C(=O)N2CCCC2)S(C)(=O)=O)cc1 | inactive: 5.91% | 
CC(Sc1nnc(Cc2cccs2)n1C1CC1)C(=O)NC1CCS(=O)(=O)C1 (stereo not drawn) |  | inconclusive: 6.51 µM [activator, single point]
COc1cc2cnc(-c3ccsc3)cc2cc1OC | inactive: 3.67% | 
Cc1ccc(CN(C)C(=O)CN2C(=O)NC3(CCCc4ccccc43)C2=O)c(C)c1 (stereo not drawn) |  | inconclusive: 29.1 µM [falling, single point]
NC(N)=NS(=O)(=O)c1ccc(N/C=C/C(=O)c2ccc(Cl)c(Cl)c2)cc1 |  | inconclusive: 23.1 µM [falling, partial curve, poor fit]
Cn1c(=O)c2ncn(CC(=O)Nc3nc(-c4ccc(Cl)cc4)cs3)c2n(C)c1=O |  | inconclusive: 32.6 µM [falling, partial curve, poor fit]
CNC(=S)Nc1cccc(-c2cnc3ccccc3n2)c1 |  | inconclusive: 16.4 µM [activator, partial curve, poor fit]
C=CCc1cccc(/C=N/NC(=O)CNc2ccccc2OC)c1O |  | inconclusive: 29.1 µM [falling, single point]
Cc1nc(N2CCN(Cc3nc4ccccc4[nH]3)CC2)c2oc3ccccc3c2n1 |  | inconclusive: 16.4 µM [falling, single point]
Cc1ccc(NC(=O)Cn2cc(S(=O)(=O)Cc3ccccc3)c3ccccc32)cc1C |  | inconclusive: 29.1 µM [falling, single point]
O=C(NCCCn1ccnc1)c1cc2ccccc2oc1=O |  | inconclusive: 16.4 µM [activator, partial curve, poor fit]
Cc1ccc(CNC(=O)c2ccc(N3CCC4(CC3)CC(c3ccccc3)=NO4)c(N)c2)cc1 |  | inconclusive: 20.6 µM [falling, single point]
CN(C)CCCNc1c2ccccc2nc2ccccc12 |  | active: 8.2 µM
COCCn1c(CN2CCN(C(c3ccccc3)c3ccccc3)CC2)nc2c1c(=O)n(C)c(=O)n2C |  | inconclusive: 20.6 µM [activator, partial curve]

Three entries drawn at random from the list so far:
SMILES | activity change, negative = inhibition | Potency
Cc1ccc(NC(=O)Cn2cc(S(=O)(=O)Cc3ccccc3)c3ccccc32)cc1C |  | inconclusive: 29.1 µM [falling, single point]
CC(Sc1nnc(Cc2cccs2)n1C1CC1)C(=O)NC1CCS(=O)(=O)C1 (stereo not drawn) |  | inconclusive: 6.51 µM [activator, single point]
CNC(=S)Nc1cccc(-c2cnc3ccccc3n2)c1 |  | inconclusive: 16.4 µM [activator, partial curve, poor fit]
